No constants are given. Whether binding was seen depends on the method and setting. Some entries that bind do so weakly or less than the wild type. For some assays here: Where a sequence is shown, tags or fusion partners need not be part of it. One block for each binder: values may come before it.
Tests used:
[1] = biological target: human FcγRIIIA ECD, recombinant (human) (UniProt P08637); experiment: Octet, recombinant ECD of the receptor
[2] = biological target: human FcγRIIIA ECD, recombinant (human) (UniProt P08637); experiment: Octet (ForteBio), receptor ECD loaded on sensor, 5 concentrations
[3] = biological target: human FcγRIIIA ECD, recombinant (human) (UniProt P08637); experiment: Octet (ForteBio) biolayer interferometry; recombinant human FcγRIIIA ECD loaded on the sensor; antibody at 5 concentrations (not printed on the sheet)
[4] = biological target: T1, recombinant human TIGIT extracellular domain (ECD) (human) (UniProt Q495A1); experiment: ELISA, VHH supernatants on h-TIGIT ECD coated plates
T1 sequence: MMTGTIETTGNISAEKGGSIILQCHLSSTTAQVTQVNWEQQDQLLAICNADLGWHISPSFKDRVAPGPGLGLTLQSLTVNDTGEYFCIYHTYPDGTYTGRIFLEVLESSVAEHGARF

Amino acid sequences for entries named in this document (tags omitted). Residues count along the entry.
UniProt P08637, residues 17-208: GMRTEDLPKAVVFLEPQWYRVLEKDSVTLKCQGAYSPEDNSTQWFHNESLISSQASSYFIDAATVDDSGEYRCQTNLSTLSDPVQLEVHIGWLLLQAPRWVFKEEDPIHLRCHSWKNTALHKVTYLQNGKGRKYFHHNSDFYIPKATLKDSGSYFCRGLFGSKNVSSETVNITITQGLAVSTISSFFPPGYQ

[5] = biological target: T1, recombinant human TIGIT extracellular domain (ECD) (human); experiment: ELISA of VHH supernatants after affinity maturation of 1G1-F-A-ERES
[6] = biological target: T2, human TIGIT (T cell immunoreceptor with Ig and ITIM domains), expressed on cells (human) (UniProt Q495A1); experiment: whole cell binding to cells stably expressing human TIGIT; EC50 plotted against the IC50 of the blocking ELISA
T2 sequence: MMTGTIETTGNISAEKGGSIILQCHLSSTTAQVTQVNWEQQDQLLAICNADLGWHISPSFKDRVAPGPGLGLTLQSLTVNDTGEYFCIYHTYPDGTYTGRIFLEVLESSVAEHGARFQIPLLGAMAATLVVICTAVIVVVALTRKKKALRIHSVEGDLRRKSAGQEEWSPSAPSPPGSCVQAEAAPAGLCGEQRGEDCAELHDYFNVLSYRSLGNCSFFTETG

[7] = biological target: T1, recombinant human TIGIT extracellular domain (ECD) (human); experiment: PVR blocking ELISA: inhibition of PVR (CD155) binding to human TIGIT; IC50 plotted against the EC50 of whole cell binding

B1: 2A3-LT-Fc VPVLL mutant (Fc mutations L235V, F243L, R292P, Y300L and P396L) (Fc fusion)
chain: QVQLVESGGGVVQPGRSLRLSCAASGGSFSSYPMGWFRQAPGKERESVAAISSDLRFTYYADSVKGRFTISRDNSKNTLYLQMNSLRAEDTAVYYCAARTSGVGYYSRAQWYDYWGQGTLVTVSSEPKSCDKTHTCPPCPAPELVGGPSVFLLPPKPKDTLMISRTPEVTCVVVDVSHEDPEVKFNWYVDGVEVHNAKTKPPEEQYNSTLRVVSVLTVLHQDWLNGKEYKCKVSNKALPAPIEKTISKAKGQPREPQVYTLPPSREEMTKNQVSLTCLVKGFYPSDIAVEWESNGQPENNYKTTPLVLDSDGSFFLYSKLTVDKSRWQQGNVFSCSVMHEALHNHYTQKSLSLSPGK
binding [1]: binds
binding [2]: binds
binding [3]: binds

B4: 1G1-1C12 VHH (SEQ ID NO 125) (VHH)
VHH: QVQLVESGGGVVQPGRSLRLSCAASGPSFSSYPMGWFRQAPGKERESVAAISSDLRFTYYADSVKGRFTISRDNSKNTLYLQMNSLRAEDTAVYYCAARDSGSGYYSRKQWYDYWGQGTLVTVSS
binding [5]: binds
binding [6]: binds
binding [7]: binds

The remaining lines, values ahead:

binding [4]: binds
B2: 4D5 VHH (VHH)
VHH: VDSGGGAVKAGDSLRLVCSAPGRTHGRAFNEYAMAWFRQGPGKERESVAAISSDGRFTYYAASVKGRFTISKDNAKSAAFLQMNSLKPEDTAVYYCAARDSGSGYYSRAQWYDYWGQGTQVTVSS

binding [4]: binds
B3: 10H5 VHH (VHH)
VHH: GGGLVQAGGSLRLACTASDPPFANYETTFKSMAMGWVRHIPGKERELVAATNYNGGRTWYSNSAKARSTISRDNAKNTVYLQMSSLKPEDTAVYYCAAKATEGTTFPSRTYEFWGQGIQVTVSS

Reference: patent US20230134580A1
